Data: US20050009137A1 (CEDARS SINAI MEDICAL CENTER, published 2005)
These are yes or no findings as the source states them, for the method shown. In cells and extracts the contact can be indirect. Some binding calls cover weakened binding; strength is not graded here.

Chains of the proteins cited; added tags and fusions are not shown. Residues count along the entry.
UniProt P03372, residues 246-595: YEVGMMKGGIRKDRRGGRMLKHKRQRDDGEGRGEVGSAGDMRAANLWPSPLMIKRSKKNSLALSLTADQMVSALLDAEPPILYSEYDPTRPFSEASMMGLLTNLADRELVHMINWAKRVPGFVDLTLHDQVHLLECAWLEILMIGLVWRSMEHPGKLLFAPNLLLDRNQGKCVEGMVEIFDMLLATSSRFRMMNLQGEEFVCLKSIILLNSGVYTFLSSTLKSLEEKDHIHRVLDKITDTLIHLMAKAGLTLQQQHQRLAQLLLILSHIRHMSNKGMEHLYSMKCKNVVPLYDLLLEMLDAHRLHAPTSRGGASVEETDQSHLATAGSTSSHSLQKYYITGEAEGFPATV

Key:
[1] = target: GST-fusion protein with the ligand-binding domain (LBD) of ERα (residues 246-595) (UniProt P03372); experiment: GST pull-down from protein extracts of cells overexpressing IEBP, SDS-PAGE and blot with anti-hsp27 antibody
[2] = target: GST-fusion protein with the ligand-binding domain (LBD) of ERα (residues 246-595) (UniProt P03372); experiment: GST pull-down (FIG. 6C)
[3] = target: GST-fusion protein with the ligand-binding domain (LBD) of ERα (residues 246-595) (UniProt P03372); experiment: GST pull-down from extracts of cells overexpressing IEBP, blot with anti-hsp27 antibody (FIG. 6C)

Measured: binding

B1: intracellular estradiol binding protein (IEBP) of New World primate B95-8 cells (other)
chain: MTERHVPFSLLQSPSWDPFRDWYPHSHLFDQAFGMPRLPEEWSQWFGTSSWPGYVRPLPPTTVEGPAVAAPAYSRALNQQLSSGVSETADRWRVSLDVNHFAPEELTVKTKDGVVEITGKHEERQDEHGFISRCFTRKYSLPPGVDPTQVSPSLSPEGTLTVDAPMSKPATQSNEITIPVTFESRAQLGGPEAAKSDRSAAK
notes: also called hsp27-like IEBP; hsp 27-related IEBP
binds: all assays above
